Data taken from PMC12164590.
These are yes or no findings as the source states them, for the method shown. Binding seen in cells or lysates may run through a third protein. Here binding means that the protein was enriched with, or labelled near, the bait; the list need not be complete.

Target: TEF5-3xHA (THYLAKOID ENRICHED FRACTION 5 with a C-terminal 3xHA tag) (Chlamydomonas reinhardtii)
Test: affinity purification with mass spectrometry; in vivo cross-linking with 0.37% formaldehyde; membrane-enriched fraction solubilised with 1% α-DDM in TNMK buffer; HA-coupled magnetic beads; LC-MS/MS of the precipitates, 3 replicates

B1: PsaD (protein, UniProt Q39615 36-196)
chain: EAEAAPAAAKKAAEKPAWTVPTLNPDTPSPIFGGSTGGLLRKAQTEEFYVITWEAKKEQIFEMPTGGAAIMRQGPNLLKFGKKEQCLALTTQLRNKFKLTPCFYRVFPDGKVQYLHPADGVYPEKVNAGRVGANQNMRRIGQNVNPIKVKFSGRMMSPAEI
- binding: binds
